The values below come from the supplement of paper PMC3047530.

“And” between values parts separate entries of the source, which are not always exact repeats. Equal values may be shown once. The list shows a part of the results. Many values rest on one well or one pass, so single values are uncertain.

For the experiment, the system named is Geomyces destructans. The experiment can be described thus: growth inhibition relative to DMSO control; higher = stronger growth inhibition. As to conditions: 10 µM; 15 °C; incubation time 10 days.
With `Nc1ccc(S(=O)(=O)Nc2ccc(Cl)nn2)cc1`, the growth inhibition was -4.92%.

On to `Cc1ccc(/C(=C\CN2CCCC2)c2ccccn2)cc1`, for which the growth inhibition was -28.9%.

In the case of `CC(=O)O[C@H]1CC[C@]2(C)[C@H]3CC[C@@]4(C)[C@H](c5ccoc5)OC(=O)[C@H]5O[C@]54[C@]3(C)[C@H](OC(C)=O)C[C@H]2C1(C)C` [3beta-ACETOXYDEOXODIHYDROGEDUNIN], the growth inhibition amounted to 1.25%.

Take `Cc1ccc2c(c1)CC[C@H]1CC(=O)CC[C@]21C`: the growth inhibition is -12.9%.

For the compound `COc1ccc(C2CC(=O)c3ccc(OC)cc3O2)cc1` (stereo not given), the growth inhibition is -4.4%.

Consider `CNCCC=C1c2ccccc2CCc2ccccc21`, for which the growth inhibition is -13.8%.

On to `Cc1c(O)cc(O)c2c(=O)c(-c3ccc(O)cc3)coc12`, for which the growth inhibition is -6.58%.

Consider `C[C@]12CC[C@@H](O)C[C@H]1CC[C@@H]1[C@@H]2C(=O)C[C@@]2(C)[C@H]1CC[C@]2(O)C(=O)CO`, for which the growth inhibition was -1.69%.

`CC(=O)Nc1ccc(S(=O)(=O)Nc2ccc([N+](=O)[O-])cc2)cc1`: the growth inhibition is -29.7%.

`CCc1cc(C(N)=S)ccn1`: the growth inhibition is -5.08%.

In the case of `NC(=O)c1ncn([C@@H]2O[C@H](CO)[C@@H](O)[C@H]2O)c1O`, the growth inhibition was -29.2%.

Consider `Cc1ccc(C(C)C)cc2c(C)ccc1-2`, for which the growth inhibition is -1.9%.

Turning to `CC[C@]12CCCN3CCc4c(n(c5ccccc45)C(=O)C1)[C@@H]32`, the growth inhibition was -21.6%.

In the case of `COc1cc(OC)c2c3c1C(=O)c1c(OC)cc(C)c4c(OC)cc(c-3c14)C(C)(C)C2=O`, the growth inhibition was -10.4%.

For `Cc1occc(=O)c1/C=C/O`, the growth inhibition was -12.5%.

Consider `CCn1cc(C(=O)O)c(=O)c2cc(F)c(N3CCNC(C)C3)c(F)c21` (stereo not given), for which the growth inhibition was -2.53%.

Take `CS(=O)(=O)Nc1ccc([N+](=O)[O-])cc1Oc1ccccc1`: the growth inhibition is -7.87%.

On to `CCOC(=O)CCC(=O)O[C@H]1[C@H](O[C@@H]2[C@@H](C)[C@H](O[C@H]3C[C@@](C)(OC)[C@@H](O)[C@H](C)O3)[C@@H](C)C(=O)O[C@H](CC)[C@@](C)(O)[C@H](O)[C@@H](C)C(=O)[C@H](C)C[C@@]2(C)O)O[C@H](C)C[C@@H]1N(C)C`, for which the growth inhibition worked out at 2.22%.

Regarding `C[C@]12C=CC(=O)C=C1CC[C@@H]1[C@@H]2C(=O)C[C@@]2(C)[C@H]1CC[C@]2(O)C(=O)CO`, the growth inhibition is -23.5%.

Consider `CC1(C)[C@@H](O[C@H]2O[C@H](C(=O)O)[C@@H](O)[C@H](O)[C@H]2O[C@@H]2O[C@H](C(=O)O)[C@@H](O)[C@H](O)[C@H]2O)CC[C@]2(C)[C@H]3C(=O)C=C4[C@@H]5C[C@@](C)(C(=O)O)CC[C@]5(C)CC[C@@]4(C)[C@]3(C)CC[C@@H]12`, for which the growth inhibition was 11.9%.

Regarding `COC(=O)C[C@H]1C(C)(C)[C@@H](OC(C)=O)[C@@H]2CC3=C4CC(=O)O[C@@H](c5ccoc5)[C@]4(C)CC[C@@H]3[C@@]1(C)C2=O`, the growth inhibition was -17.7%.

`CC(=O)N1CCN(c2ccc(OCC3COC(Cn4ccnc4)(c4ccc(Cl)cc4Cl)O3)cc2)CC1` (stereo not given): the growth inhibition worked out at 5.13%.

Regarding `CC1(C)C2CC(=O)O[C@@]3(C)C4=CC(=O)O[C@@H](c5ccoc5)[C@]4(C)CCC3[C@@]2(C)C=C[C@H]1O` (stereo not given in full), the growth inhibition is -11.2%.

In the case of `O=C(O)P(=O)(O)O`, the growth inhibition is -6.72%.

As to `CCN(CC)CCCC(C)Nc1c2ccc(Cl)cc2nc2ccc(OC)cc12` (stereo not given), the growth inhibition is -9.19%.

For the compound `COc1cc2c(cc1OC)-c1cc3ccc(OC)c(OC)c3c[n+]1CC2`, the growth inhibition was -2.1% and -9.71%.

For the compound `COC(=O)[C@H]1[C@H]2C[C@@H]3c4[nH]c5cc(OC)ccc5c4CCN3C[C@H]2C[C@@H](OC(=O)c2cc(OC)c(OC)c(OC)c2)[C@@H]1OC`, the growth inhibition was -9.53%.

In the case of `CNC(=C[N+](=O)[O-])NCCSCc1ccc(CN(C)C)o1`, the growth inhibition is -5.9%.

On to `O=c1c(-c2ccc(O)cc2)coc2cc(O)cc(O)c12`, for which the growth inhibition was -1.49%.

Consider `O=C1C=C2CC3(O)COc4cc(O)ccc4C3=C2C=C1O` (stereo not given), for which the growth inhibition is -10.8%.

Consider `N[C@H](Cc1ccccc1)C(=O)O`, for which the growth inhibition is -5.73%.

In the case of `CNC[C@H](O)c1cccc(O)c1`, the growth inhibition was -9.69%.

Consider `C[C@]12CC[C@@H](O)C[C@H]1CCc1ccccc12` [3alpha-HYDROXY-4,4-BISNOR-8,11,13-PODOCARPATRIENE], for which the growth inhibition is -6.49%.

`O=C(O[C@@H]1Cc2c(O)cc(O)cc2O[C@@H]1c1cc(O)c(O)c(O)c1)c1cc(O)c(O)c(O)c1`: the growth inhibition came to 1.18%.

In the case of `CC[C@H](CC[C@@H](C)[C@H]1CC[C@H]2[C@@H]3CC=C4C[C@@H](OC(C)=O)CC[C@]4(C)[C@H]3CC[C@]12C)C(C)C`, the growth inhibition is -2.22%.

As to `COc1cc(C(=O)O)c2c(c1C)OC(=O)c1c(C)cc(O)c(C=O)c1O2`, the growth inhibition was -8.01%.

For the compound `NS(=O)(=O)c1cc2c(cc1Cl)N=C(CSCc1ccccc1)NS2(=O)=O`, the growth inhibition is -1.53%.

As to `CC(=O)OC/C=C(C)/C=C/C=C(C)/C=C/C1=C(C)CCCC1(C)C`, the growth inhibition was -5.74%.

Take `O=C1C(CC[S+]([O-])c2ccccc2)C(=O)N(c2ccccc2)N1c1ccccc1` (stereo not given): the growth inhibition is -19.4%.

As to `COC(=O)c1c(C)cc(OC(=O)c2c(C)c(Cl)c(O)c(C=O)c2O)c(C)c1O`, the growth inhibition is -1.95%.

Turning to `C[C@@H]1O[C@@H](Oc2c(-c3ccc(O)c(O)c3)oc3cc(O)cc(O)c3c2=O)[C@H](O)[C@H](O)[C@H]1O`, the growth inhibition was -5.62%.

For `O=C(O)Cc1ccccc1Nc1c(Cl)cccc1Cl`, the growth inhibition was -1.05%.

In the case of `O=c1cc(-c2cc(O)c(O)c(O)c2)oc2cc(O)cc(O)c12`, the growth inhibition is 7.77%.

With `O=c1[nH]cc(F)c(=O)[nH]1`, the growth inhibition is 78.6%.

On to `O=C(O)c1cc(=O)c2cccc(O)c2[nH]1`, for which the growth inhibition is -0.444%.

Turning to `C[C@]12C=CC(=O)C=C1CC[C@@H]1[C@@H]2[C@@H](O)C[C@@]2(C)[C@H]1CC[C@]2(O)C(=O)CO`, the growth inhibition is -19.2%.

Regarding `CS(=O)(=O)c1ccc([C@@H](O)[C@@H](CO)NC(=O)C(Cl)Cl)cc1`, the growth inhibition is -24.2%.

Take `N=c1ccn2c(n1)O[C@H]1[C@H](O)[C@@H](CO)O[C@H]12`: the growth inhibition was -6.24%.

As to `CC(=O)Oc1c(C)cccc1C(=O)O`, the growth inhibition was -0.686%.

Consider `Cc1cc(C(C)(C)CC(C)(C)C)ccc1OCCOCC[N+](C)(C)Cc1ccccc1`, for which the growth inhibition was 91.3%.

Turning to `Cc1cc(NC(=O)C2=C(O)c3ccccc3S(=O)(=O)N2C)no1`, the growth inhibition is -12.5%.

For the compound `CN(C)CCCN1c2ccccc2CCc2ccc(Cl)cc21`, the growth inhibition was -4.78%.

Regarding `Cc1cc(OC(=O)c2c(C)cc(O)cc2O)cc(O)c1C(=O)O`, the growth inhibition is -7.36%.

`COC(=O)C1=C(C)NC(C)=C(C(=O)OC)C1c1ccccc1[N+](=O)[O-]`: the growth inhibition was -13.9%.

For the compound `C#C[C@]1(O)CC[C@H]2[C@@H]3CCC4=CC(=O)CC[C@@H]4[C@H]3CC[C@@]21C`, the growth inhibition was -8.01%.

On to `CO[C@@]1(NC(=O)C(C(=O)O)c2ccc(O)cc2)C(=O)N2C(C(=O)O)=C(CSc3nnnn3C)CO[C@@H]21` (stereo not given in full), for which the growth inhibition was -11.7%.

In the case of `O=c1c(O)c(-c2ccccc2)oc2ccccc12`, the growth inhibition was -9.14%.

Regarding `Oc1cc(O)cc(/C=C/c2ccccc2)c1`, the growth inhibition worked out at 15.7%.

As to `C[C@@H]1CC[C@@]2(OC1)O[C@H]1C[C@H]3[C@@H]4CC[C@H]5C[C@@H](O)CC[C@]5(C)[C@H]4CC[C@]3(C)[C@H]1[C@@H]2C`, the growth inhibition was -14.1%.

With `Nc1ccc(S(=O)(=O)Nc2ncccn2)cc1`, the growth inhibition is -15.5%.

As to `COC(=O)c1c(Cl)c(Cl)c(C(=O)OC)c(Cl)c1Cl`, the growth inhibition is -9.27%.

As for `C[C@H]1NC(=O)NC1=O`, the growth inhibition was found to be 1.3%.

`Cc1ccnc(NS(=O)(=O)c2ccc(N)cc2)n1`: the growth inhibition is -11.5%.

Take `CC1(C)C(=O)CC[C@]2(C)C1CC[C@@]13CC(CC[C@H]12)[C@](O)(CO)C3` (stereo not given in full): the growth inhibition was -21.3%.

Consider `COc1ccc(C[C@H](N)C(=O)N[C@H]2[C@@H](O)[C@H](n3cnc4c(N(C)C)ncnc43)O[C@@H]2CO)cc1`, for which the growth inhibition was -7.34%.

For `O=C(O)CN(CC(=O)O)Cc1cc2c(cc1O)Oc1cc(O)c(CN(CC(=O)O)CC(=O)O)cc1C21OC(=O)c2ccccc21`, the growth inhibition is -32.9%.

Consider `Nc1ccc(S(=O)(=O)Nc2cnc3ccccc3n2)cc1`, for which the growth inhibition was -3.66%.

As for `CC(=O)Oc1ccccc1C(=O)Oc1ccccc1C(=O)O`, the growth inhibition was -13.6%.

For the compound `COc1c(C(C)C)oc2cc3oc(=O)ccc3cc12`, the growth inhibition was -1.28%.

Consider `CCCCNc1cc(C(=O)O)cc(S(N)(=O)=O)c1Oc1ccccc1`, for which the growth inhibition was -4.1%.

Take `CC(=O)O[C@@H]1CC2C(C)(C)C=CC(=O)[C@]2(C)C2CC[C@@]3(C)[C@H](c4ccoc4)OC(=O)C4OC43[C@@]21C` (stereo not given in full): the growth inhibition was -10.4%.

Regarding `CC[C@H](C)C(=O)O[C@H]1C[C@@H](C)C=C2C=C[C@H](C)[C@H](CC[C@@H]3C[C@@H](O)CC(=O)O3)[C@H]21`, the growth inhibition is -9.53%.

Take `CN=C(N)NCCCC(N)C(=O)O` (stereo not given): the growth inhibition was -39.2%.

For the compound `CCN(CC)CCOC(=O)c1ccc(N)cc1`, the growth inhibition is -20.5%.

Take `O=c1cc(-c2ccccc2)oc2cc(O)c(O)c(O)c12`: the growth inhibition is -13.2%.

For `COc1cc(OC)c2c(c1)O[C@H](c1cc(OC)c(OC)c(OC)c1)[C@H](OC(=O)c1cc(OC)c(OC)c(OC)c1)C2`, the growth inhibition is -2.34%.

In the case of `COc1cccc(-c2cc(=O)c3cc(OC)ccc3o2)c1`, the growth inhibition was -6.51%.

Regarding `CC(=O)O[C@H]1C[C@@]2(C)[C@@H](C[C@@H](O)[C@H]3[C@@]4(C)CC[C@@H](O)[C@@H](C)[C@@H]4CC[C@@]32C)/C1=C(\CCC=C(C)C)C(=O)O`, the growth inhibition was found to be 6.2%.

On to `CC(=O)N[C@@H](CS)C(=O)O`, for which the growth inhibition is -10.1%.

Consider `CNCCCC12CCC(c3ccccc31)c1ccccc12`, for which the growth inhibition amounted to 4.06%.

As for `OC(c1cc(C(F)(F)F)nc2c(C(F)(F)F)cccc12)C1CCCCN1` (stereo not given), the growth inhibition was -2.53%.

For `O=C(O[C@@H]1Cc2c(O)cc(O)cc2O[C@@H]1c1ccc(O)c(O)c1)c1cc(O)c(O)c(O)c1`, the growth inhibition worked out at 2.28%.

For the compound `CCCCCC(=O)O[C@]1(C(C)=O)CC[C@H]2[C@@H]3CCC4=CC(=O)CC[C@]4(C)[C@H]3CC[C@@]21C`, the growth inhibition came to 3.75%.

On to `COc1ccc(C(=O)O)c(O)c1OC`, for which the growth inhibition was -2.67%.

Turning to `Cc1cc(C)cc(OCC2CNC(=O)O2)c1` (stereo not given), the growth inhibition was -12.2%.

With `C[C@]12C=CC(=O)C=C1CC[C@H]1[C@@H]3C[C@@H](O)[C@](O)(C(=O)CO)[C@@]3(C)C[C@H](O)[C@@]12F`, the growth inhibition is -15.7%.

With `CC1(C)O[C@@H]2C[C@H]3[C@@H]4CCC5=CC(=O)CC[C@]5(C)[C@@]4(F)[C@@H](O)C[C@]3(C)[C@]2(C(=O)CCl)O1`, the growth inhibition was -11.4%.

As to `O=C(O)C=C1CCCc2ccccc2C1O` (stereo not given), the growth inhibition was -7.83%.

Regarding `CC(=O)CCCCn1c(=O)c2c(ncn2C)n(C)c1=O`, the growth inhibition was -14.6%.

On to `C=C1[C@@H]([C@@]2(C)C=CC(=O)C(C)(C)[C@@H]2CC(=O)OC)CC[C@@]2(C)[C@H](c3ccoc3)OC(=O)[C@H]3O[C@]132`, for which the growth inhibition amounted to 11.1%.
